Measured values: publication PMC5122980
No constants are given. Whether binding was seen depends on the method and setting. In cells and extracts the contact can be indirect. Some entries that bind do so weakly or less than the wild type.

By UniProt entry, the sequences of proteins in these tests, tags left out. Where a name states a change or a piece, a line headed by the entry shows the natural chain unless it says otherwise.
UniProt P05627: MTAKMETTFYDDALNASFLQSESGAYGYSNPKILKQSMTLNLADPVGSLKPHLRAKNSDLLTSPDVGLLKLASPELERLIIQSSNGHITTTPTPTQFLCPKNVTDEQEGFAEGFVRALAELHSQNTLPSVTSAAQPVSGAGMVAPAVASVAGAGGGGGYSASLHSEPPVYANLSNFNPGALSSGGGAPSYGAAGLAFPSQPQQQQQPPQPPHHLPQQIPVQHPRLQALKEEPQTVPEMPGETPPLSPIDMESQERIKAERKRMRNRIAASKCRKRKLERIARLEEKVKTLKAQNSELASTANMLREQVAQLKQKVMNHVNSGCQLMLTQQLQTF
UniProt P11688: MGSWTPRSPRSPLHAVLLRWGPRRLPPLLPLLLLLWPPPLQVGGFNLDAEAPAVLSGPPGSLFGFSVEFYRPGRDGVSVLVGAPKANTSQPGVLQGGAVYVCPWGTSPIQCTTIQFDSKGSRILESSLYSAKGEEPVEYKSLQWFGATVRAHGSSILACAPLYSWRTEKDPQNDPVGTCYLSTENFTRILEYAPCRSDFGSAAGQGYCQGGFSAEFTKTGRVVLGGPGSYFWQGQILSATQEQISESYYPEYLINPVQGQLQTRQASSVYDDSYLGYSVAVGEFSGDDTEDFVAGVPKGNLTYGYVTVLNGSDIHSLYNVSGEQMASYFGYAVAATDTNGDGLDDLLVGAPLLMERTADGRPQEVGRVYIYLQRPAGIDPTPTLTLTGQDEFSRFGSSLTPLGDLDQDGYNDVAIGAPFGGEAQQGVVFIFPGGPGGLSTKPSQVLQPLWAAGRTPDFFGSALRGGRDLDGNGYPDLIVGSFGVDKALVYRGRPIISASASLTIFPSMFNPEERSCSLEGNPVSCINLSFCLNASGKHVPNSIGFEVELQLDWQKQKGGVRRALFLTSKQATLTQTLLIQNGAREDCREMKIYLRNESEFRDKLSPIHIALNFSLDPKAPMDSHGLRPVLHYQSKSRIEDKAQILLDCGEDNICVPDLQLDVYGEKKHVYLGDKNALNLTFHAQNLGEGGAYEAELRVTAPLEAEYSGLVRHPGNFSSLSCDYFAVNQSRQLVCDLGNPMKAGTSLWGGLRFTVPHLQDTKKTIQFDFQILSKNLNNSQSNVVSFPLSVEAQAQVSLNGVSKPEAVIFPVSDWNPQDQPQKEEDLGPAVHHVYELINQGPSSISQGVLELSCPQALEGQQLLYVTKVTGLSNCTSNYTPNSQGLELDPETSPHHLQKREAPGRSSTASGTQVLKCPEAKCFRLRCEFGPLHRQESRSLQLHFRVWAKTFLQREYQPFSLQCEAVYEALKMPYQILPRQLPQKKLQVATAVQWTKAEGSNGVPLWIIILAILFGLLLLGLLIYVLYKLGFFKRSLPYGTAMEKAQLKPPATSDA
UniProt P01101: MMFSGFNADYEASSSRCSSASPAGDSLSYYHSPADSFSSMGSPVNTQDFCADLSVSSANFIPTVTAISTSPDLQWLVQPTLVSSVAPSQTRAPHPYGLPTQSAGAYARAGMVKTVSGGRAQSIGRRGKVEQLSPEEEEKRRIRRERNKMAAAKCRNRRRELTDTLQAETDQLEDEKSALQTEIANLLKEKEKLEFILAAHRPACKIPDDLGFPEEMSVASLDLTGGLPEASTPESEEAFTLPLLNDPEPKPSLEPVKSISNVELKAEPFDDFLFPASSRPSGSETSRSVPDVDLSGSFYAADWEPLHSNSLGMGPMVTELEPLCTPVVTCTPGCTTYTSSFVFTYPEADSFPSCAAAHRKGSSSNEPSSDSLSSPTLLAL
UniProt P09055: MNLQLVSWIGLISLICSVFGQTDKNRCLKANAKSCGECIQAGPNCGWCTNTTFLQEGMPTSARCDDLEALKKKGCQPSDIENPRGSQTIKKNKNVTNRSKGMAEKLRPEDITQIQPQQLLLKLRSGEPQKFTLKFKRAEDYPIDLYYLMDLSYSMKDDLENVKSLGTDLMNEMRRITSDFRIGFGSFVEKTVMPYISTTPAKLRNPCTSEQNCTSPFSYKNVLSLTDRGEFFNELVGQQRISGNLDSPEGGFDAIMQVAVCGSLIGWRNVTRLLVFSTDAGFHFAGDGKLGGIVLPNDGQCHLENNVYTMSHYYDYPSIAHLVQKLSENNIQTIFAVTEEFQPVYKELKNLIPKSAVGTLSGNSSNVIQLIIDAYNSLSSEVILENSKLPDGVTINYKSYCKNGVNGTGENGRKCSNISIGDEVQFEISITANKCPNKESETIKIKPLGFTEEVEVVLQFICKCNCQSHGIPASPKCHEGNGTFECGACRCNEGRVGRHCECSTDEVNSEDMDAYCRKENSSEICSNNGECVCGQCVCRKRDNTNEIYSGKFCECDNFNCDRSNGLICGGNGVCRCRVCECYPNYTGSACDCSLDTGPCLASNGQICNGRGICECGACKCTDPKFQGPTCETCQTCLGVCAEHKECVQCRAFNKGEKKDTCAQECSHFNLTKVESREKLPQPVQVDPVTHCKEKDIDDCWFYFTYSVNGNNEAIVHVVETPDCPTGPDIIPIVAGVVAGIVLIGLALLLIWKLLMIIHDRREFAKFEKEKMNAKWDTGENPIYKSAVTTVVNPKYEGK

B1: kindlin-2 (protein, UniProt Q8CIB5 1-680)
chain: MALDGIRMPDGCYADGTWELSVHVTDLNRDVTLRVTGEVHIGGVMLKLVEKLDVKKDWSDHALWWEKKRTWLLKTHWTLDKCGIQADAKLQFTPQHKLLRLQLPNMKYVKVKVNFSDRVFKAVSDICKTFNIRHPEELSLLKKPRDPTKKKKKKLDDQSEDEALELEGPLIMPGSGSIYSSPGLYSKTMTPTYDAHDGSPLSPTSAWFGDSALSEGNPGILAVSQPVTSPEILAKMFKPQALLDKAKTNQGWLDSSRSLMEQDVKENEALLLRFKYYSFFDLNPKYDAIRINQLYEQAKWALLLEEIECTEEEMMMFAALQYHINKLSIMTSENHLNNSDKEVDEVDAALSDLEITLEGGKTSTILGDITSIPELADYIKVFKPKKLTLKGYKQYWCTFKDTSISCYKSREESSGTPAHQLNLRGCEVTPDVNISGQKFNIKLLIPVAEGMNEIWLRCDNEKQYAHWMAACRLASKGKTMADSSYNLEVQNILSFLKMQHLNPDPQLIPDQITTDVNPECLVSPRYLKKYKSKQITARILEAHQNVAQMSLIEAKMRFIQAWQSLPEFGITHFIARFQGGKREELIGIAYNRLIRMDASTGDAIKTWRFSNMKQWNVNWEIKMVTVEFADEVRLSFICTEVDCKVVHEFIGGYIFLSTRAKDQNESLDEEMFYKLTSGWV

Tests used:
[1] = target: T1, Flag-Jun-α5 cyto (mouse) (UniProt P05627+P11688); test: pull-down; mixture of E. coli lysate supernatants of Flag-Jun-α5 and Myc-Fos-β1 incubated with ANTI-FLAG M2 Affinity Gel 2 h at 4 °C, washed three times with TBS; cytotails revealed by anti-Flag and anti-Myc blots
[2] = target: T1, Flag-Jun-α5 cyto (mouse); test: pull-down; recombinant Flag-tagged integrin cytotails (alone or Jun-Fos dimerized) held on ANTI-FLAG M2 Affinity Gel, washed with TBS; 1 mg mouse fibroblast lysate (50 mM Tris-HCl pH 7.5, 150 mM NaCl, 1% Triton X-100) added for 2 h at 4 °C; western blot; only the target purified
[3] = target: Flag-Fos-β1 cyto (mouse) (UniProt P01101+P09055); test: as above

Molecule	binding [1]	binding [2]	binding [3]
Myc-Fos-β1 (from UniProt P01101 161-200; P09055 752-798) (domain or fragment)	binds	–	–
B1	–	no binding	binds
